From patent publication US20200253979A1, “THERAPEUTIC METHODS RELATING TO HSP90 INHIBITORS” (AI Therapeutics, Inc., priority 2017, published 2020)

Tests used:
[1] = tested on: MOLM-13-LUC cells; experiment: CellTiter-Glo cell viability; type: cell-based; conditions: Homo sapiens, 72 hours
From the text: (§1) In the clinic, tyrosine kinase inhibitors that target FLT3 initially show positive responses, but patients inevitably relapse due to the development of drug-resistance through various mechanisms, as discussed above.

[2] = tested on: MOLM-13-R-PKC412 (midostaurin-resistant) cells; experiment: CellTiter-Glo cell viability; type: cell-based, human
From the text: as §1

EC50 [1]: 44 nM
EC50 ([2]; Homo sapiens, MOLM-13-R-PKC412, 72 hours): 112 nM
fold difference in EC50, midostaurin-resistant vs control cells ([2]; MOLM-13-R-PKC412 vs MOLM-13-LUC): ~2.5 fold
SMILES: CO[C@@H]1[C@H](N(C)C(=O)c2ccccc2)C[C@H]2O[C@]1(C)n1c3ccccc3c3c4c(c5c6ccccc6n2c5c31)C(=O)NC4 [midostaurin]
